Measurements taken from US8512311B2, “Augmentation of intraluminal microvessel formation to facilitate guide wire crossing in chronic total occlusions” (priority 2004, dated 2013).

Test system: femoral artery CTO
Assay: MR imaging of CTO with Gd-DTPA, distribution volume score
Type: in vivo, rabbit

O=C([O-])CN(CCN(CC(=O)[O-])CC(=O)O)CCN(CC(=O)[O-])CC(=O)O.[Gd+3] [Gd-DTPA]
distribution volume score (percentage of tissue volume occupied by the agent) (body of the CTO, 12 weeks): 3% | distribution volume score (percentage of tissue volume occupied by the agent) (centre (body) of the CTO, 6 weeks): 18% | distribution volume score (percentage of tissue volume occupied by the agent) (exit region of the CTO, 6 weeks): 4% | distribution volume score (percentage of tissue volume occupied by the agent) (exit region of the CTO, 12 weeks): 6%
